The source of these data is article PMC3482241.

The target of this data set is T1, NFAT1 MutDBD R423A,Y426A,E429A (UniProt Q60591).
T1 sequence (looked up, limits assumed): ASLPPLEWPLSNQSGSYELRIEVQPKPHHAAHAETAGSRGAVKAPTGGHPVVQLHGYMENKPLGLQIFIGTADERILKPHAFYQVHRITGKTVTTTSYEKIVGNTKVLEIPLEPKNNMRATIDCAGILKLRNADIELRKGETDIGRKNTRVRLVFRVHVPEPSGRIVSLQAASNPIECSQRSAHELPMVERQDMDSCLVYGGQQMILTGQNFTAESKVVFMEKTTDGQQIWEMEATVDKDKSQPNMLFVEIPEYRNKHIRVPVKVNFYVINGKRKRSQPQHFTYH
The experiment in a line: EMSA. The following applies: no binding at 10 nM, 100 nM, 500 nM or 1 uM protein, poly(dI:dC) 0.2 ug/reaction; EMSA: 10 mM HEPES pH 7.0, 125 mM NaCl, 10% glycerol, 0.25 mM DTT, 0.8 mg/mL BSA, 0.2 ug poly(dI:dC) in 20 uL, 20 min at room temperature; 4% native PAGE in 1x TBE; recombinant protein; protein details: Ni-NTA purified (His tag implied); label: 32P 5' end (T4 PNK).

The exact form of at least one protein or probe is not confirmed. A negative result means that nothing was seen under these conditions. Where a protein sequence is shown, tags need not be part of it.

Take “GCCCAAAGAGGAAAATTTGTTTCATACAG (double strand) [IL-2 promoter NFAT site oligonucleotide]”: the binding result is reported as “no binding”.
